According to patent publication US20230340098A1:
Results are given in words; binding and its absence hold for the method and conditions named. Some binding calls cover weakened binding; strength is not graded here.

The chains behind the UniProt entries cited, without tags or fusion partners. Where a name states a change or a piece, a line headed by the entry shows the natural chain unless it says otherwise. Residues count along the entry.
UniProt Q14392, residues 20-627: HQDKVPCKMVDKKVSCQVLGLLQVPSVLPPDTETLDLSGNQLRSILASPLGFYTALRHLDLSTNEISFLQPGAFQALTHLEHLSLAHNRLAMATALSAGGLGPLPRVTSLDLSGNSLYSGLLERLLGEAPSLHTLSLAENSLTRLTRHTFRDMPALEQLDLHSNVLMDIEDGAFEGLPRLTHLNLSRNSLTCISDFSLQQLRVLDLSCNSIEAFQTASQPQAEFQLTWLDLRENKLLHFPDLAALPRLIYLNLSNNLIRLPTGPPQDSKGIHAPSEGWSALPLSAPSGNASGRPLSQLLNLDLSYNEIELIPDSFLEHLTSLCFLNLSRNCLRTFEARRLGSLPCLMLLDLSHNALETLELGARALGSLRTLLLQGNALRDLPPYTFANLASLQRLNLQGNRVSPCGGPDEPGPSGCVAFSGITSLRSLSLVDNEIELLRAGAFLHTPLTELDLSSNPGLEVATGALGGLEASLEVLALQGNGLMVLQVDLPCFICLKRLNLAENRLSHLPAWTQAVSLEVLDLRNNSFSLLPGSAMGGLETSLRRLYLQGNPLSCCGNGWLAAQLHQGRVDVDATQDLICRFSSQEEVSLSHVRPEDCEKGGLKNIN
UniProt P01137: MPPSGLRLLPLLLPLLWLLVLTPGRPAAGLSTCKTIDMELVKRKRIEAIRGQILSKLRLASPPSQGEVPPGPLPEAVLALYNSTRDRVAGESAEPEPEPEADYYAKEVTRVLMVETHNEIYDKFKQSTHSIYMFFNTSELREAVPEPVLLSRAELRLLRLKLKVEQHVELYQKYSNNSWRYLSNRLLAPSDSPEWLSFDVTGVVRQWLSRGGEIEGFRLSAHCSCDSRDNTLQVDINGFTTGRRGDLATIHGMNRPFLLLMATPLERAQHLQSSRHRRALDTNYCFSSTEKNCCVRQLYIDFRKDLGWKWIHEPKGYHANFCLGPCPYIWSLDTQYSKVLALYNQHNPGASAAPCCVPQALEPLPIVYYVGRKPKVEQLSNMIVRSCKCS

Columns and labels:
[1] = molecular target: T1, human GARP/TGFβ1 complex (protein used in ELISA and Octet) (human) (UniProt Q14392+P01137); assay: Octet
[2] = molecular target: human GARP protein not in any GARP/TGFβ1 complex (protein used in ELISA and Octet) (human) (UniProt Q14392); assay: Octet
[3] = molecular target: T1, human GARP/TGFβ1 complex (protein used in ELISA and Octet) (human); assay: ELISA, coated complex
[4] = molecular target: human GARP protein not in any GARP/TGFβ1 complex (protein used in ELISA and Octet) (human) (UniProt Q14392); assay: ELISA, coated GARP protein

- binding [1]: binds
- binding [2]: binds
- binding [3]: binds
- binding [4]: binds
B1: Clone hGA17 (antibody, human IgG1, kappa, V domains shown)
VH: QVQLVQSGAEVKKPGASVKVSCKASGFNIKDTYFHWVRQAPGQGLEWMGRIDPTNGNGRYAQKFQGRVTMTRDTSTSTVYMELSSLRSEDTAVYYCATSTGTGYFALVYWGQGTTVTVSS
VL: DIQLTQSPSFLSASVGDRVTITCKASQNVGSAVAWYQQKPGKAPKLLIYWSSTRHTGVPSRFSGSGSGTEFTLTISSLQPEDFATYYCQQYSNYPLTFGGGTKLEIKR
